Measured values published in US8530465B2, “1, 2-disubstituted amido-anthraquinone derivatives, preparation method and application thereof” (National Defense Medical Center, priority 2010, dated 2013).

Tested on: 60 kinds of different human cancer cells
Assay: NCI in vitro 60-cell Drug Screen, whole panel
Assay type: cell-based
Details: over tested cell lines; 1.00E−5 Molar
Experimental: In brief, cellular protein levels were determined after 48 hours of drug exposure by sulforhodamine B colorimetry. Through the use of a time 0 cell control, the cell growth can be determined for each cell line thus allowing calculations of the 50% growth inhibitory concentration (GI50), the total growth inhibition (TGI), and the 50% lethal concentration (LC50). Comparison to plates not exposed to drug permits determination of concentration and times of exposure conferring 50% net growth inhibition (GI50), TGI, and 50% cell kill (LC50).
From the data analysis it follows that approximately 95% of the actives (potent anticancer drugs) from the 60 cell line screen can be identified. By these criteria, five compounds (each with its certification number, refer to FIG. 4) of the invention were reported that having anticancer activity.
The screening system in United State National Cancer Institute (NCI) is consisted of 60 kinds of different human cancer cells, which can be used to assay the growth-inhibiting ability or cell toxicity of a compound against various cancer and tumor at a certain concentration.

Cc1ccc(C(=O)Nc2ccc3c(c2NC(=O)c2ccc(C)cc2)C(=O)c2ccccc2C3=O)cc1 [CC-04, 1,2-bis-(4-methylbenzamido)-anthraquinone]
Growth Percent, Delta: 29.65%
Growth Percent, Range: 76.37%

Cc1ccc(C(=O)Nc2c(NC(=O)CCl)ccc3c2C(=O)c2ccccc2C3=O)cc1 [CC-12, 1-(4-methylbenzamido)-2-(chloroacetamido)-anthraquinone]
Growth Percent, Delta: 96.76%
Growth Percent, Range: 229.24%

O=C(CCl)Nc1ccc2c(c1NC(=O)Cc1ccccc1)C(=O)c1ccccc1C2=O [CC-23, 1-[2-(phenyl)acetylamino]-2-(chloroacetamido)-anthraquinone]
Growth Percent, Delta: 105.03%
Growth Percent, Range: 155.52%

Cc1ccc(C(=O)Nc2c(NC(=O)CN3CCCC3)ccc3c2C(=O)c2ccccc2C3=O)cc1 [CC-38, 1-(4-methylbenzamido)-2-[2-(tetrahydro-1H-1-pyrrolyl)acetylamino]-anthra quinone]
Growth Percent, Delta: 43.19%
Growth Percent, Range: 82.09%

Cc1ccc(C(=O)Nc2c(NC(=O)CN3CCN(C)CC3)ccc3c2C(=O)c2ccccc2C3=O)cc1 [CC-43, 1-(4-methylbenzamido)-2-[2-(4-methylpiperazino)acetylamino]-anthraquinone]
Growth Percent, Delta: 106.75%
Growth Percent, Range: 183.68%
